# Experimental data published in the supplement of paper PMC12823440, “Inhibitors supercharge kinase turnover through native proteolytic circuits” (Nature, 2025).
# By UniProt entry, the sequences of proteins in these tests, tags left out.
# UniProt P29317, whole entry: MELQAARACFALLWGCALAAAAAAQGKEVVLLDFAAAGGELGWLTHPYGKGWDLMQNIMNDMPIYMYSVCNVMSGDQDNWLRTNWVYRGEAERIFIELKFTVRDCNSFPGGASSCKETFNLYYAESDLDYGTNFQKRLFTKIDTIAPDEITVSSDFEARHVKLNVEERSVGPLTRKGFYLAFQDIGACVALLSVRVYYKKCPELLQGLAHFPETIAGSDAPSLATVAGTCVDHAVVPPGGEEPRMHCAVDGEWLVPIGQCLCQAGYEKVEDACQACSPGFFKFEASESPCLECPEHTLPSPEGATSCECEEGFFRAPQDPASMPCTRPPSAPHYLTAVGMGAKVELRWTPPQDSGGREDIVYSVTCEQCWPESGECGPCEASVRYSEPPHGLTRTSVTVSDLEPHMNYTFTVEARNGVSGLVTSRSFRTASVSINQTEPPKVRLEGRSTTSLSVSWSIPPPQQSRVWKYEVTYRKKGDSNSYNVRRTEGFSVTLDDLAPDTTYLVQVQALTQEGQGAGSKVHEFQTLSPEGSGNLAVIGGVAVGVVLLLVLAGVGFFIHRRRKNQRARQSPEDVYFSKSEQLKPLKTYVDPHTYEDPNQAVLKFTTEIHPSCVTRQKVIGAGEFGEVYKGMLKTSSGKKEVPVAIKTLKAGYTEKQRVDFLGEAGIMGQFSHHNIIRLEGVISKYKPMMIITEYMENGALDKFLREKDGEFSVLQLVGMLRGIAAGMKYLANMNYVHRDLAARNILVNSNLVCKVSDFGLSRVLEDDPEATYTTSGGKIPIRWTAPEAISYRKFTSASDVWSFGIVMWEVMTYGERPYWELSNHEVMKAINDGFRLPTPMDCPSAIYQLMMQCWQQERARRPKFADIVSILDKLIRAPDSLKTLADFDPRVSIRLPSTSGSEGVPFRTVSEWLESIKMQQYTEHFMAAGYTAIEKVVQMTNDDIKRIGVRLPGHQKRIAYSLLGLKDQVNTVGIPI
# UniProt P21860, whole entry: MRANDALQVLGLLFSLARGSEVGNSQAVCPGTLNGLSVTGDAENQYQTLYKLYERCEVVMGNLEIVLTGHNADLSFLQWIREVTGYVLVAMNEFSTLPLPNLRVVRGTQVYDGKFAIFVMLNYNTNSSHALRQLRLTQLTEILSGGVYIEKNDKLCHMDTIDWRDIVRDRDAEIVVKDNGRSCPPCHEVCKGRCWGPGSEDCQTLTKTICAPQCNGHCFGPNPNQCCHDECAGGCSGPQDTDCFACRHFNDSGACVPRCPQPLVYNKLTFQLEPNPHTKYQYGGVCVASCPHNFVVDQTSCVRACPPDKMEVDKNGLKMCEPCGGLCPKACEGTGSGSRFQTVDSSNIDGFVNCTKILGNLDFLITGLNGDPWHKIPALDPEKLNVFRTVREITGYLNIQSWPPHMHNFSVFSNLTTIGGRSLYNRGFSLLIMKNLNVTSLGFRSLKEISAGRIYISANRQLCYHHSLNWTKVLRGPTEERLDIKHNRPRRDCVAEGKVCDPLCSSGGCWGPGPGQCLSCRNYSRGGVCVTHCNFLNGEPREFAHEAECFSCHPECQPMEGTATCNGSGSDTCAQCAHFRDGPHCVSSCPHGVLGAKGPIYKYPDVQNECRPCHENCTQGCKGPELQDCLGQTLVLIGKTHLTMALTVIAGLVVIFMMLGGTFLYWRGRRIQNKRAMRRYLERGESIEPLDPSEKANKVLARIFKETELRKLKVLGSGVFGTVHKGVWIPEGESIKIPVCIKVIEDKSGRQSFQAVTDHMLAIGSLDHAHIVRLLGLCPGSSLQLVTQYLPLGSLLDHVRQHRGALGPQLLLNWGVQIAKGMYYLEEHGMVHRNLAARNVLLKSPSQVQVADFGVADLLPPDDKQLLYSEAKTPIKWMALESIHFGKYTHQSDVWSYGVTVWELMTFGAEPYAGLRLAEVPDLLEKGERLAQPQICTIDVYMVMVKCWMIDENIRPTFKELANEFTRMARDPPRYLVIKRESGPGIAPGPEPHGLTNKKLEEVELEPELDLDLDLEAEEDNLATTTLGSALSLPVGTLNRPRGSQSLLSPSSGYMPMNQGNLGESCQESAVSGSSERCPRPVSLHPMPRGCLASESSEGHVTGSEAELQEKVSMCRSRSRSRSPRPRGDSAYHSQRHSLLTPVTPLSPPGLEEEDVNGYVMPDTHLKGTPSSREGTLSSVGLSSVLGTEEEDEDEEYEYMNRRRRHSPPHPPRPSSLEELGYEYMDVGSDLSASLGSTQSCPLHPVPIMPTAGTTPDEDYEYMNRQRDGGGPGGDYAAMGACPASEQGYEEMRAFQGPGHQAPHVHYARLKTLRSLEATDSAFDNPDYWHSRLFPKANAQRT
# UniProt Q15303, whole entry R711C: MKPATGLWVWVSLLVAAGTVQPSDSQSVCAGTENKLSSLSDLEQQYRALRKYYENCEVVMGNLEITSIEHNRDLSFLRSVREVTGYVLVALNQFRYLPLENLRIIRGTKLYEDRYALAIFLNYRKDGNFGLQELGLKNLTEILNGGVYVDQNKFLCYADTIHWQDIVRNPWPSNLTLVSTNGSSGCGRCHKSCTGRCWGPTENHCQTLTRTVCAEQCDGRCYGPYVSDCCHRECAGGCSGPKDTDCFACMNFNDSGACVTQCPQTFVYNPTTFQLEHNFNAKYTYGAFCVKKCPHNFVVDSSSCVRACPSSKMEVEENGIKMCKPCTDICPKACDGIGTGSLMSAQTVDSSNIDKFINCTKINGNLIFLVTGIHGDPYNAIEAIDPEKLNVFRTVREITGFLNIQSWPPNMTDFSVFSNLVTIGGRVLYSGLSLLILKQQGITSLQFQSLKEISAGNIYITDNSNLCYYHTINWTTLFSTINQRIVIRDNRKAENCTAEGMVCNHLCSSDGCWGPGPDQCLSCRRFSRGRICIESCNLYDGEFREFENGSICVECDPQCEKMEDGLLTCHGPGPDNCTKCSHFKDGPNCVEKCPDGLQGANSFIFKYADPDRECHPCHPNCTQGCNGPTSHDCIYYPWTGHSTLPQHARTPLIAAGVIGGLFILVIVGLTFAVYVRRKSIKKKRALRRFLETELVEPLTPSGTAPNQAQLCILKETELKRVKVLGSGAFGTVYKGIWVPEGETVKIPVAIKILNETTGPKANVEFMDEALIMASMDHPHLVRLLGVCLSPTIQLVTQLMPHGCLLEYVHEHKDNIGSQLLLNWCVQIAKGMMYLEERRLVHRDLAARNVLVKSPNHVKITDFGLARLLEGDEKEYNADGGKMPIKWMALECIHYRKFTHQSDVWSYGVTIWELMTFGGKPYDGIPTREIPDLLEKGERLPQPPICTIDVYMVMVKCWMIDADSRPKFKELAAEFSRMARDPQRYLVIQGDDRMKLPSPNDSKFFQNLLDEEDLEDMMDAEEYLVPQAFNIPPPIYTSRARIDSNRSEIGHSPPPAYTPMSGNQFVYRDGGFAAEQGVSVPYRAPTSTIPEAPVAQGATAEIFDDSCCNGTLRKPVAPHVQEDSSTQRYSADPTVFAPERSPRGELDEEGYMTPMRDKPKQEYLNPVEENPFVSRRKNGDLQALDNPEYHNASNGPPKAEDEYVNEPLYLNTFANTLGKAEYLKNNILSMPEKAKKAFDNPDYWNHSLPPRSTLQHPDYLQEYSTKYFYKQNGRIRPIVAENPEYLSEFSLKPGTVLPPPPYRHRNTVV
# UniProt P11362, whole entry, looked up: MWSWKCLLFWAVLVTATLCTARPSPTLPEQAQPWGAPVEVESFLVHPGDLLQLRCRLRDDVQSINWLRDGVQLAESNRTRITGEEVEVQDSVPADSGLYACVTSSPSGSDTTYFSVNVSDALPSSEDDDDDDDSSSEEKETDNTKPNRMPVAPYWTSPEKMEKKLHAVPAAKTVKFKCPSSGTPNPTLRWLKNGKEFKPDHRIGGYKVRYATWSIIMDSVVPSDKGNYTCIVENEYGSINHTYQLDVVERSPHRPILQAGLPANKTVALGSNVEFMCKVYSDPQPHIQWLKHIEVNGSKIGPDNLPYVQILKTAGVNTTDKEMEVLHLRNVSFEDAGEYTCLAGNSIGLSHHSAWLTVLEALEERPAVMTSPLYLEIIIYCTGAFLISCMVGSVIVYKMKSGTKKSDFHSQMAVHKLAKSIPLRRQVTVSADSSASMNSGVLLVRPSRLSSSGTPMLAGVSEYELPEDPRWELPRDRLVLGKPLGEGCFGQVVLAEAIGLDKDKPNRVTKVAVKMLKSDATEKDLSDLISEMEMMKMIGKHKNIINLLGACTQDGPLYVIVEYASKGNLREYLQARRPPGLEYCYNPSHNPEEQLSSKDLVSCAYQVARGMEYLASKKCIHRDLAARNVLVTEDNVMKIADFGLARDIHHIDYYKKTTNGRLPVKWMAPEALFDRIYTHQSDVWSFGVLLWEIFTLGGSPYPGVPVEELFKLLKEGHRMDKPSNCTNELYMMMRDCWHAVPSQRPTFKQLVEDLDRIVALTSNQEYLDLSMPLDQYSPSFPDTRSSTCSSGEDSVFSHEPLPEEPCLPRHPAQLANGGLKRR
# UniProt P21802, whole entry, looked up: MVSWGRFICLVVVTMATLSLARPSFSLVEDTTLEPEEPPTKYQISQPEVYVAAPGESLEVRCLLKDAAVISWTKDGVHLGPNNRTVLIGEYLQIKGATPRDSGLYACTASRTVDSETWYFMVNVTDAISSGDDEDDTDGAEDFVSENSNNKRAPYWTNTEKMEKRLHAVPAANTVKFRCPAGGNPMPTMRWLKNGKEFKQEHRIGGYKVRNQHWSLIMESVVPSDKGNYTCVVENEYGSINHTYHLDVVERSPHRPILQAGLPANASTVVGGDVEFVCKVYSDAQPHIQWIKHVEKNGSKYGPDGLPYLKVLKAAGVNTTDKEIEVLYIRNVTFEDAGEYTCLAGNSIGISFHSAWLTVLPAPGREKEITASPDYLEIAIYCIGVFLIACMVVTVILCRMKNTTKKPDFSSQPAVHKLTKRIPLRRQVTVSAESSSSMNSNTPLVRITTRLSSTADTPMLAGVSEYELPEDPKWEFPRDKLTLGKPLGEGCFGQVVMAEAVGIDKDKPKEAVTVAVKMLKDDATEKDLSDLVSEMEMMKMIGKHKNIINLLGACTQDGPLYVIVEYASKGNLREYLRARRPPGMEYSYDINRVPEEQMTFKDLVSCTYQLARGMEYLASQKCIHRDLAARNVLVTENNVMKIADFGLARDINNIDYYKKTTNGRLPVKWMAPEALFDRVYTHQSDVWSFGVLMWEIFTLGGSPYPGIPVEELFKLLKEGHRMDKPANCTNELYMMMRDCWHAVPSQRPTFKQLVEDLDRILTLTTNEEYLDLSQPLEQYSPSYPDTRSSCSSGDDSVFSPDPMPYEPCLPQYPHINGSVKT
# UniProt P22607, whole entry, looked up: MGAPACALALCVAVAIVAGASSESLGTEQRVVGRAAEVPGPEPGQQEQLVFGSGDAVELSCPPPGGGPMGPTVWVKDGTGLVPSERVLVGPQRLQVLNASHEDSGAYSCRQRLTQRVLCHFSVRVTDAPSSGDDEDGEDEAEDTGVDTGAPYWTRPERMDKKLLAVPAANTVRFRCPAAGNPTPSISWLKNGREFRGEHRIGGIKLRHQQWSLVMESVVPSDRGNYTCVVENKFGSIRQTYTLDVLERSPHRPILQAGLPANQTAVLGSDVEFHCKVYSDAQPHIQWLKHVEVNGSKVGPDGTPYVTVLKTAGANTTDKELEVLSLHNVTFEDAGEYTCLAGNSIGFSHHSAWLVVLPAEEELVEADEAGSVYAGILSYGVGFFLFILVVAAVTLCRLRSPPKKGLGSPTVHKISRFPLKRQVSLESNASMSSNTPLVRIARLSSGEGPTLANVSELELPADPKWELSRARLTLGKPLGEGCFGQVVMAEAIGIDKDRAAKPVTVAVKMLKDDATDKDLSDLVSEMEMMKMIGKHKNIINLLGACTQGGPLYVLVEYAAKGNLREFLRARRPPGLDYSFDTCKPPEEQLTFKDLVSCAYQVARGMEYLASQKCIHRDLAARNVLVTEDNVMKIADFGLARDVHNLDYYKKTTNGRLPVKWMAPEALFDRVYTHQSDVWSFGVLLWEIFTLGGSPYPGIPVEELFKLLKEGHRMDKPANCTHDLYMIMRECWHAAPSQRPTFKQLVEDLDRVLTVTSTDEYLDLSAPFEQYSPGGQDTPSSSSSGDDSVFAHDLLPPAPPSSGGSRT
# Counter-ions that a name gives are not always drawn. The list shows a part of the results. The calls rarely recur for the same compound in another form.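 In K562 cells expressing nanoluciferase-fused kinases, luminescence was recorded at 4 h intervals between 2 and 18 h, normalized as percent of control with DMSO at 100% and a positive control at 0%. A significant (2 sigma) signal drop marks a time point as decreased. The authors' rule for a hit is not shown and takes in more than the number of time points.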
# What was measured:
# Test in all cases: number of time points (of 5) at which kinase-Nluc abundance scored as decreased, DMSO-normalised (count); higher = more persistent destabilization
# Conditions in all cases: K562; 2-18 h
# EGFR_L861Q = EGFR_L861Q (UniProt P00533)
# EGFR_T790M = EGFR_T790M (UniProt P00533)
# EPHA2 = EPHA2 (UniProt P29317)
# ERBB3 = ERBB3 (UniProt P21860)
# [1] = molecular target: ERBB4_R711C (clone: ERBB4_mut) (UniProt Q15303)
# ERN1 = ERN1 (UniProt O75460)
# FGFR1 = FGFR1 (UniProt P11362)
# FGFR2 = FGFR2 (UniProt P21802)
# FGFR3 = FGFR3 (UniProt P22607)
# FGR = FGR (UniProt P09769)
SMILES,number of time points (EGFR_L861Q),number of time points (EGFR_T790M),number of time points (EPHA2),number of time points (ERBB3),number of time points [1],number of time points (ERN1),number of time points (FGFR1),number of time points (FGFR2),number of time points (FGFR3),number of time points (FGR)
Nc1nccc(Oc2ccc(NC(=O)c3cn(COP(=O)(O)O)cc(-c4ccc(F)cc4)c3=O)cc2F)c1Cl (10 µM),0,0,0,0,1,0,0,0,0,0
Cc1cc([C@H](C)Nc2ccccc2)c2oc(N3CCOCC3)cc(=O)c2c1 (10 µM),0,0,0,0,0,0,0,0,0,0
CCOc1ccc(C(=O)Nc2ncc([N+](=O)[O-])s2)cc1 (10 µM),0,0,0,0,0,0,0,0,0,0
CNc1nc(Nc2cnn(C3CCN(C4COC4)CC3F)c2Cl)ncc1C(F)(F)F (stereo not given) (10 µM),0,0,0,0,0,0,0,0,0,0
Nc1ncnc2c1c(-c1ccc(Oc3ccccc3)cc1)nn2C1CCNCC1 [N-piperidine Ibrutinib (hydrochloride)] (10 µM),1,0,0,0,0,0,0,0,0,0
CCN1CCN(Cc2ccc(Nc3ncc(F)c(-c4cc(F)c5nc(CO)n(C(C)C)c5c4)n3)nc2)CC1 [Abemaciclib metabolite M20] (2 µM),0,0,0,0,0,0,0,0,0,0
COc1cc(N2CCC(N3CCN(C)CC3)CC2)ccc1Nc1ncc(Cl)c(Nc2ccccc2P(C)(C)=O)n1 [Brigatinib] (2 µM),0,0,0,0,2,0,0,0,0,0
Fc1ccc(-c2nc(-c3ccccc3F)[nH]c2-c2ccncc2)cc1 (2.5 µM),0,0,0,0,0,0,0,0,0,0
O=C(NCCCNc1nc(Nc2cccc(NC(=O)N3CCCC3)c2)ncc1I)c1cccs1 (2.5 µM),0,0,0,0,1,0,0,0,0,0
Nc1cc(Nc2ccc(S(N)(=O)=O)cc2)ncn1 (10 µM),0,0,0,0,0,0,0,0,0,0
CC1CN(C(=O)Nc2ccc(Cl)c(Cl)c2)C(=Nc2ccc(F)cc2)S1 (stereo not given) (10 µM),0,0,0,0,0,0,0,0,0,0
CS(=O)(=O)c1ccc(-c2noc(C(F)(F)F)c2-c2ccccc2)cc1 (10 µM),0,0,0,0,0,0,0,0,0,0
C=C(CCC=C(C)C)[C@H]1CC[C@]2(C)[C@@H]1[C@H](O)C[C@@H]1[C@@]3(C)CC[C@H](O[C@@H]4O[C@H](CO)[C@@H](O)[C@H](O)[C@H]4O[C@@H]4O[C@H](CO)[C@@H](O)[C@H](O)[C@H]4O)C(C)(C)[C@@H]3CC[C@]12C [Ginsenoside Rk1] (10 µM),0,0,0,0,0,0,0,0,0,0
COC1(c2sc3c(N4CCOCC4)nc(-c4cnc(N)nc4)nc3c2C)COC1 (2.5 µM),0,0,0,0,0,0,0,0,0,0
CCN(CC)S(=O)(=O)c1ccc(OC)c(N2CCN(C(=O)c3ccc(F)cc3C(F)(F)F)CC2)c1 (10 µM),0,0,0,0,0,0,0,0,0,0
CCn1c(-c2nonc2N)nc2cnc(Oc3cccc(NC(=O)c4ccc(OCCN5CCOCC5)cc4)c3)cc21 (10 µM),0,0,0,0,0,0,0,0,0,0
COc1cccc(-n2c(=O)[nH]c3cc(Cl)n(-c4ccc(-c5cccc(OC)c5O)cc4)c3c2=O)c1 (2.5 µM),0,0,0,0,0,0,0,0,0,0
O=C(/C=C/c1ccc(O[C@@H]2O[C@H](CO)[C@@H](O)[C@H](O)[C@H]2O[C@@H]2OC[C@](O)(CO)[C@H]2O)cc1)c1ccc(O)cc1O [Isoliquiritin apioside] (10 µM),0,0,0,0,0,0,0,0,0,0
CC(C)CC1(O)CCN(C(=O)c2ccc(NS(=O)(=O)c3cccc4nccnc34)cc2)CC1 (10 µM),0,0,0,0,0,0,0,0,0,0
O=C1Nc2nc(-c3c(O)cccc3OCC3CC3)cc([C@@H]3CCCNC3)c2CO1 [Bay 65-1942 (hydrochloride)] (10 µM),2,0,0,0,0,2,0,0,0,0
C[C@@H]1C(=O)O[C@H](C)[C@H]1C[C@@H](O)[C@](C)(O)[C@H]1CC[C@@]2(O)C3=CC(=O)[C@@H]4C[C@@H](O)[C@@H](O)C[C@]4(C)[C@H]3CC[C@]12C [Cyasterone] (10 µM),0,0,0,0,0,0,0,0,0,0
N[C@H](Cc1c[nH]c2ccccc12)C(=O)N/N=C/c1ccc2nccnc2c1 [Rhosin (hydrochloride)] (10 µM),0,0,0,0,0,0,0,0,0,0
COc1ccc(C2CC(c3ccccc3)=NN2c2ccc(S(N)(=O)=O)cc2)cc1 (stereo not given) (10 µM),0,0,0,0,0,0,0,0,0,0
COc1ccc2[nH]cc(/C=C3\C(=O)Nc4ccc(NC(=O)CCN5CCCCC5)cc43)c2c1 (2.5 µM),0,0,0,0,0,0,0,0,0,0

SMILES,number of time points (EGFR_L861Q),number of time points (EGFR_T790M),number of time points (EPHA2),number of time points (ERBB3),number of time points [1],number of time points (ERN1),number of time points (FGFR1),number of time points (FGFR2),number of time points (FGFR3),number of time points (FGR)
Cn1nccc1Nc1nccc(-c2cc3c(s2)C(C)(C)N(CCN2CCOCC2)C3=O)n1 (10 µM),0,0,0,0,0,0,0,0,0,0
Cc1c(CN2CCN(C(=O)[C@H](C)O)CC2)sc2c(N3CCOCC3)nc(-c3cnc(N)nc3)nc12 [Apitolisib] (10 µM),0,0,1,0,1,0,2,0,0,0
CO[C@H]1C[C@@H]2CC[C@@H](C)[C@@](O)(O2)C(=O)C(=O)N2CCCC[C@H]2C(=O)O[C@H]([C@H](C)C[C@@H]2CC[C@@H](O)[C@H](OC)C2)CC(=O)[C@H](C)/C=C(\C)[C@@H](O)[C@@H](OC)C(=O)[C@H](C)C[C@H](C)/C=C/C=C/C=C/1C [Rapamycin] (10 µM),0,0,0,0,0,0,0,0,0,0
C=CC(=O)Nc1cc2c(Nc3ccc(OCc4ccccn4)c(Cl)c3)ncnc2cc1OCCN1CCOCC1 (10 µM),0,0,0,1,1,0,0,0,0,0
CCn1c(C(=O)N(C2CC2)C2CC2)cc2c3c(ncn3C)c(Nc3cc(C)n(C)n3)nc21 (10 µM),0,0,0,0,0,0,0,0,0,0
COc1ccc2c(c1O)OC(C)(C)c1c-2ccc2c1C(=O)N(c1ccc(C(=O)c3ccccc3)cc1)C2=O [Ampkinone] (10 µM),0,0,0,0,0,0,0,0,0,0
Cc1cc(NC(=O)c2cccc(NC(=O)/C=C/CN(C)C)c2)ccc1Nc1nccc(-c2cccnc2)n1 (10 µM),0,0,0,0,1,0,0,0,0,0
CC(C)=CC[C@H](O)C1=CC(=O)c2c(O)ccc(O)c2C1=O [(-)-Alkannin] (2.5 µM),0,0,0,0,0,0,0,0,0,0
OCCNC1CCCc2c1[nH]c1ccc(-c3ccccc3)cc21 (stereo not given) (2.5 µM),2,0,0,0,0,0,0,1,0,1
N#Cc1c(-c2ccccc2)cc(-c2cc(Br)ccc2O)[nH]c1=O (10 µM),0,0,0,0,0,0,1,0,0,0
CC(C)c1cnc(-c2cc(Cl)ccc2F)cc1Nc1ccncc1C(=O)NC(CO)CO (2.5 µM),0,0,0,0,0,0,0,0,0,0
Cc1ccc(Oc2nc3cc(-c4ccc5c(ccn5C)c4)c(Cl)cc3[nH]2)cc1C(=O)O (10 µM),0,0,0,0,0,0,0,0,0,0
CC(C)CN[C@H]1CS(=O)(=O)C[C@@H]1S(=O)(=O)c1ccc(Cl)cc1 (10 µM),0,0,0,0,0,0,1,0,0,0
N#CC(c1ccnc(NCCc2cccnc2)n1)c1nc2ccccc2s1 (stereo not given) (10 µM),0,0,0,0,0,0,0,0,0,0
Nc1ncnc2c1ncn2[C@@H]1O[C@H](CO)C[C@H]1O [Cordycepin] (10 µM),0,0,0,0,0,0,0,0,0,0
COC1(C(=O)N2Cc3nc(Cl)nc(N[C@H](C)c4cc(N)cc(C(F)(F)F)c4)c3C2)CCOCC1 (10 µM),0,0,0,0,0,0,0,0,0,0
Cc1ccc(Nc2cc(-c3cccc(N4C(=O)c5ccccc5C4=O)c3)ncn2)cc1NS(C)(=O)=O (10 µM),0,0,2,0,1,0,0,0,0,0
C[C@]1(O)CCC[C@@H]1n1c(=O)c(C(F)F)cc2cnc(NC3CCN(S(C)(=O)=O)CC3)nc21 (10 µM),0,0,0,0,0,0,0,0,0,0
CCn1c(=O)c(-c2ccc(-c3cncs3)cc2Cl)cc2cnc(Nc3ccc(N4CCN(C)CC4)cc3)nc21 (2.5 µM),0,0,0,0,0,0,0,0,0,0
COc1cc(N2CCN(C)CC2)ccc1Nc1ncc2c(n1)N(C1CCC1)C(=O)N(c1c(C)cccc1C)C2 (2.5 µM),0,0,0,0,0,0,0,0,0,0
Cc1c(NC(=O)OC[C@@H]2COCCN2)cn2ncnc(Nc3ccc4c(cnn4Cc4cccc(F)c4)c3)c12 (10 µM),0,0,0,0,0,0,0,0,0,0
COc1ccc(Cn2cc(C(=O)N=Nc3c(O)[nH]c4c(C)cccc34)nn2)cc1 [MARK4 inhibitor 1] (10 µM),0,0,0,0,0,0,0,0,0,0
COc1cc(S(C)(=O)=O)ccc1Nc1nc2ccc(-c3ccc(NC(=O)[C@H](C)c4ccc(F)cc4)cc3)cn2n1 [Empesertib] (10 µM),0,0,0,0,0,0,0,0,0,0
NC1(Cc2ccc(Cl)cc2)CCN(c2ncnc3[nH]ccc23)CC1 (10 µM),0,0,0,0,0,0,0,0,0,0

# Record cards (already shown). Values in the order: number of time points (EGFR_L861Q)	number of time points (EGFR_T790M)	number of time points (EPHA2)	number of time points (ERBB3)	number of time points [1]	number of time points (ERN1)	number of time points (FGFR1)	number of time points (FGFR2)	number of time points (FGFR3)	number of time points (FGR)
# `Cc1ccc(Nc2cc(-c3cccc(N4C(=O)c5ccccc5C4=O)c3)ncn2)cc1NS(C)(=O)=O` (10 µM) is listed as 0	0	2	0	1	0	0	0	0	0
# `COC1(C(=O)N2Cc3nc(Cl)nc(N[C@H](C)c4cc(N)cc(C(F)(F)F)c4)c3C2)CCOCC1` (10 µM) is listed as 0	0	0	0	0	0	0	0	0	0
